Measurements published in patent US10327446B2, “Naphthyl- or isoquinolinyl-substituted isothiazoline compounds” (BOEHRINGER INGELHEIM ANIMAL HEALTH USA INC., priority 2013, dated 2019).
Some entries share one result that the patent states for a list of compounds.

System: Orchid Thrips (Dichromothrips Corbetti)
Assay: Orchid thrips floral-immersion test
Format: in vivo
Details: 500 ppm; orchid petals dipped, adult thrips; 72 hours after treatment
Protocol: B.7 Orchid Thrips (Dichromothrips Corbetti)
Dichromothrips corbetti adults used for bioassay were obtained from a colony maintained continuously under laboratory conditions. For testing purposes, the test compound is diluted in a 1:1 mixture of acetone:water (vol:vol), plus Kinetic HV at a rate of 0.01% v/v.
Thrips potency of each compound was evaluated by using a floral-immersion technique. All petals of individual, intact orchid flowers were dipped into treatment solution and allowed to dry in Petri dishes. Treated petals were placed into individual resealable plastic along with about 20 adult thrips. All test arenas were held under continuous light and a temperature of about 28° C. for duration of the assay. After 3 days, the numbers of live thrips were counted on each petal. The percent mortality was recorded 72 hours after treatment.

SMILES: N#CC1(CNC(=O)c2ccc(C3=NSC(c4cc(Cl)c(Cl)c(Cl)c4)(C(F)(F)F)C3)c3ccccc23)CC1 (racemic) [Compound 2-2]
- mortality in comparison with untreated controls: at least 75%

SMILES: N#CC1(NC(=O)c2ccc(C3=NSC(c4cc(Cl)c(F)c(Cl)c4)(C(F)(F)F)C3)c3ccccc23)CC1 (racemic) [Compound 2-3]
- mortality in comparison with untreated controls: at least 75%

SMILES: C=CCNC(=O)c1ccc(C2=NSC(c3cc(Cl)c(F)c(Cl)c3)(C(F)(F)F)C2)c2ccccc12 (racemic) [Compound 2-4]
- mortality in comparison with untreated controls: at least 75%
